Experimental data: PubChem BioAssay AID1347076 (National Center for Advancing Translational Sciences (NCATS), 2019)
Among all 400,000 compounds or so, about 13,000 (3.2%) were called active. The shares of active, inactive and inconclusive entries below differ from those in the screen. The call rests on the fitted dose curve; in most records, active means well fitted cell-killing curve with a large enough effect; inconclusive means small, poorly fitted or top-dose-only effect, or effect the other way; inactive means flat fitted curve, though single readings scatter. Potencies of inconclusive entries are doubtful fits and often do not repeat.

Assay: qHTS assay for MDR1-selective chemotherapeutics: Primary screen using the drug-selected MDR subline cells KB-V1; further: nearly all actives have a fitted effect of over 60% in size
Details: KB-V1 MDR cells viability, CellTiter-Glo, 72 h; activity change, negative = cytotoxicity: at 46.1 µM (top of the series)
In short: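 Cells of the MDR subline KB-V1 are plated, dosed with compound at multiple concentrations, and incubated 72 h at 37 degrees C; CellTiter-Glo is then added and luminescence read after 10 min.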
On the % scale 0 is the no-effect control and ±100 the full control effect; potency means the concentration at half of the fitted maximal effect.

| SMILES | Potency | activity change, negative = cytotoxicity |
| --- | --- | --- |
| O=C(OCc1ccc([N+](=O)[O-])cc1)c1cc([N+](=O)[O-])ccc1N1CCOCC1 | inconclusive: 8.2 µM [cytotoxic, partial curve] | – |
| CCCCN1C(=O)/C(=C2\SC(N3CCCCC3)=NC2=O)c2ccccc21 | inconclusive: 29.1 µM [cytotoxic, single point] | – |
| O=C(NN=Cc1ccccc1C(=O)O)c1ccc(NS(=O)(=O)c2cccs2)cc1 | inconclusive: 9.2 µM [rising, single point] | – |
| CCC(C)NC(=O)CSc1nc2ccsc2c(=O)n1NC(=O)c1ccccc1 (stereo not given) | inconclusive: 23.1 µM [cytotoxic, single point] | – |
| O=[N+]([O-])c1cc(S(=O)(=O)Oc2ccccc2)ccc1Cl | inconclusive: 20.6 µM [cytotoxic, single point] | – |
| COc1ccnc(CSC(N)=Nc2ccccc2OC)c1 | inconclusive: 35.5 µM [cytotoxic, single point] | – |
| O=C(NC(c1ccccc1)c1ccccc1)C1(c2cccs2)CCOCC1 | active: 5.17 µM | – |
| O=C(NC1CC1)C1CC(=O)N(c2ccccc2)C1 (stereo not given) | – | inconclusive: 16.1% |
| CCC(C)(C)NC(=O)CN(C(=O)c1csnn1)c1cccc2c1CCCC2 | inconclusive: 11.6 µM [cytotoxic, single point] | – |
| COc1ccc(N2CCN(C(=O)C(=O)c3c(C)n(C)c4ccccc34)CC2)cc1 | inconclusive: 16.4 µM [cytotoxic, partial curve] | – |
| CC1(C)CC(=O)c2cc(C(=O)NNc3ccccc3)c(=O)n(-c3ccccc3)c2C1 | inconclusive: 8.2 µM [cytotoxic, partial curve, poor fit] | – |
| CCC(C)(c1nnnn1-c1c(C)cccc1C)N(N=O)c1ccccc1Cl (stereo not given) | active: 18.4 µM | – |
| CC(C)(C)C1CCC(C(=O)OCC(=O)N2CCOCC2)CC1 (stereo not given) | inconclusive: 29.1 µM [rising, partial curve, poor fit] | – |
| CCc1ccc(CN2CCCC(C(=O)N3CCCCC3)C2)cc1 (stereo not given) | inconclusive: 0.731 µM [rising, full curve] | – |
| Clc1nc(Nc2ccccc2)nc(Nc2ccccc2)n1 | inconclusive: 16.4 µM [cytotoxic, partial curve, poor fit] | – |
| O=C(NCc1ccc(F)cc1F)Nc1cnccc1C(F)(F)F | – | inactive: 36.8% |
| COc1ccc(/C=C/C(=O)OCC(=O)NC2CCCC2)cc1 | – | inactive: 0% |
| COc1cc(NC(=O)C2CC2C)c(C(=O)O)cc1OC (stereo not given) | inconclusive: 9.2 µM [rising, partial curve] | – |
| COc1ccccc1-c1nc(C#N)c(N2CCCCCC2)o1 | inconclusive: 13 µM [cytotoxic, partial curve] | – |
| CCCNC(=O)c1ccccc1NC(=O)c1ccc(CSc2ccccc2)cc1 | – | inactive: 0% |
| CCn1c(C(=O)NCc2ccccc2)cc2sc(Cl)cc21 | – | inactive: -4.77% |
| Cc1ccc(/C=C(\NC(=O)c2ccccc2)C(=O)OCc2ccccc2)cc1 | active: 16.4 µM | – |
| COC(=O)c1cc2oc3ccccc3c2n1CC(=O)Nc1ccc(C)cc1Cl | inconclusive: 29.1 µM [rising, single point] | – |

Fetched by compound from the entries so far:

| SMILES | Potency | activity change, negative = cytotoxicity |
| --- | --- | --- |
| CCCCN1C(=O)/C(=C2\SC(N3CCCCC3)=NC2=O)c2ccccc21 | inconclusive: 29.1 µM [cytotoxic, single point] | – |
| COc1ccc(/C=C/C(=O)OCC(=O)NC2CCCC2)cc1 | – | inactive: 0% |
| O=C(NC(c1ccccc1)c1ccccc1)C1(c2cccs2)CCOCC1 | active: 5.17 µM | – |

(cont.)

| SMILES | Potency | activity change, negative = cytotoxicity |
| --- | --- | --- |
| COc1ccc(NC(=O)c2cccc(OC(F)F)c2)cc1Cl | active: 14.6 µM | – |
| COc1ccc(-c2ccc(/C=C3/C(=N)N4C=CSC4=NC3=O)o2)c([N+](=O)[O-])c1 | inconclusive: 20.6 µM [cytotoxic, partial curve, poor fit] | – |
| O=C1c2ccccc2NC(c2ccccc2Cl)N1N=C1CCCCCC1 (stereo not given) | inconclusive: 20.6 µM [cytotoxic, single point] | – |
| CCCCSC(=S)NC1CCS(=O)(=O)C1 (stereo not given) | – | inactive: -6.56% |
| COc1ccc(CC(=O)Nc2ccc3nc(C)sc3c2)cc1OC | inconclusive: 29.1 µM [cytotoxic, single point] | – |
| CC(=O)Nc1ccc(Cl)cc1C(=O)O | inconclusive: 20.6 µM [rising, single point] | – |
| O=C(CSc1nnc(-c2cccc(Cl)c2)o1)Nc1ccc2c(c1)OCCO2 | – | inactive: 2.54% |
| O=C(c1cc(O)c(O)c([N+](=O)[O-])c1)c1ccccc1F | inconclusive: 14.6 µM [cytotoxic, single point] | – |
| COc1ccc(CNC(=O)COC(=O)c2ccc(C(=O)c3ccccc3)cc2)cc1 | inconclusive: 2.91 µM [rising, full curve] | – |
| COc1ccccc1OCCOc1ccc(C(=O)c2ccccc2)cc1 | inconclusive: 29.1 µM [rising, single point] | – |
| CCOC(=O)C1=CCN(Cc2ccccc2)CC1 | inconclusive: 23.1 µM [rising, partial curve] | – |
| CC(NC(=O)c1ccco1)C1COc2ccccc2O1 (stereo not given) | inconclusive: 0.411 µM [cytotoxic, full curve] | – |
| COC(=O)c1sccc1NC(=O)CN(C)NS(=O)(=O)c1ccc(Cl)cc1 | inconclusive: 25.9 µM [cytotoxic, single point] | – |
| COc1ccc(OC)c(NC(=O)c2cnc3n(c2=O)CCS3)c1 | inconclusive: 29.1 µM [rising, single point] | – |
| Cc1ccc(C)c2[nH]c(=O)c(CN(CC3CCCO3)C(=O)NC3CCCCC3)cc12 (stereo not given) | active: 14.6 µM | – |
| CC(=NNc1nc2ccccc2o1)c1ncccn1 | inconclusive: 0.731 µM [cytotoxic, full curve, poor fit] | – |
| O=C(Nc1ccccc1)Nc1ccc(S(=O)(=O)N2CCCCC2)cc1 | inconclusive: 23.1 µM [cytotoxic, single point] | – |
| O=C(/C=C/Nc1ccccc1F)c1cccs1 | – | inactive: -2.29% |
| CC1CCCN(CCCNC(=O)c2nn(C)c3c2CSc2ccccc2-3)C1 (stereo not given) | – | inactive: -22.8% |
| CCn1ncc(CNC(=O)CCCSc2nc(-c3ccco3)cc(C(F)(F)F)n2)c1C | inconclusive: 16.4 µM [cytotoxic, single point] | – |
| c1ccc(CNc2ncnc3sc4c(c23)CCC4)nc1 | inconclusive: 16.4 µM [cytotoxic, single point] | – |
| CN(Cc1cn(Cc2cccc(Cl)c2)nn1)C1CN(Cc2cn(Cc3cccc(Cl)c3)nn2)S(=O)(=O)C1 (stereo not given) | inconclusive: 14.6 µM [cytotoxic, single point] | – |
